# Measured values: US11135246B2, “Peptides and combination of peptides for use in immunotherapy against leukemias and other cancers” (Immatics Biotechnologies GmbH, priority 2017, dated 2021)
# Test system: HLA molecules of primary tumor samples
# Assay: Identification of tumor associated peptides presented on the cell surface (HLA immune precipitation, LC-MS)
# Set-up: species or system human
# Conditions: for Peptide Presentation on cancer entities: entities on which the peptide was presented, CLL = chronic lymphocytic leukemia, AML = acute myeloid leukemia, CML = Chronic myeloid leukemia; for Peptide Presentation on tumor types: tumor entities on which the peptide was found presented (Table 8b)
Substance,Peptide Presentation on cancer entities,Peptide Presentation on tumor types
56 (KYSSGFRNI; listed as Homo sapiens) [compound 56],CLL,"BRCA, CCC, CRC, GBC, GBM, GC, HCC, MEL, NHL, NSCLCadeno, NSCLCother, NSCLCsquam, OC, OSCAR, PACA, PRCA, RCC, SCLC, UEC"
57 (RFPPTPPLF; listed as Homo sapiens) [compound 57],CLL,"HNSCC, NHL, NSCLCsquam, OSCAR, UEC"
58 (KYLADLPTL; listed as Homo sapiens) [compound 58],CLL,"BRCA, CCC, CRC, GBC, GBM, GC, HCC, HNSCC, MEL, NHL, NSCLCadeno, NSCLCother, NSCLCsquam, OC, OSCAR, PRCA, RCC, SCLC, UEC"
59 (GLYEGTGRLF; listed as Homo sapiens) [compound 59],AML,–
60 (TQDPHVNAFF; listed as Homo sapiens) [compound 60],CLL,"BRCA, CRC, GBC, GEJC, HCC, HNSCC, NHL, NSCLCadeno, NSCLCother, NSCLCsquam, OC, OSCAR, PACA, PRCA, SCLC, UBC, UEC"
61 (IFKEHNFSF; listed as Homo sapiens) [compound 61],AML,–
62 (YYLSHLERI; listed as Homo sapiens) [compound 62],AML,"GBC, HNSCC, NSCLCadeno, NSCLCother, NSCLCsquam, UBC"
63 (IYFSNTHFF; listed as Homo sapiens) [compound 63],AML,–
64 (SFQSKATVF; listed as Homo sapiens) [compound 64],AML,–
65 (AYLKQVLLF; listed as Homo sapiens) [compound 65],CLL,"BRCA, CCC, CRC, GBC, GBM, GC, HCC, MEL, NHL, NSCLCadeno, NSCLCother, NSCLCsquam, OC, OSCAR, PACA, PRCA, RCC, SCLC, UBC, UEC"
66 (SQPAVATSF; listed as Homo sapiens) [compound 66],AML,"CRC, SCLC"
67 (VFLPSEGFNF; listed as Homo sapiens) [compound 67],AML,"MEL, NSCLCadeno, SCLC"
68 (LYQDRFDYL; listed as Homo sapiens) [compound 68],AML,"GC, MEL, NHL, NSCLCadeno, NSCLCother, NSCLCsquam, PRCA, SCLC, UEC"
69 (EYNTIKDKF; listed as Homo sapiens) [compound 69],CLL,"GBC, GC, HCC, MEL, NHL, NSCLCadeno, NSCLCother, NSCLCsquam, OSCAR, PACA, SCLC, UEC"
70 (LYSDIGHLL; listed as Homo sapiens) [compound 70],CLL,"CRC, GBC, GBM, GC, HCC, HNSCC, MEL, NHL, NSCLCadeno, NSCLCother, NSCLCsquam, OSCAR, PRCA, RCC, UBC, UEC"
71 (RYLGKNWSF; listed as Homo sapiens) [compound 71],AML,"GBC, OC, RCC"
72 (TYVENLRLL; listed as Homo sapiens) [compound 72],CLL,"BRCA, CCC, CRC, GBC, GBM, GC, HCC, HNSCC, MEL, NHL, NSCLCadeno, NSCLCother, NSCLCsquam, OC, OSCAR, PACA, PRCA, RCC, SCLC, UBC, UEC"
73 (TYPQLEGFKF; listed as Homo sapiens) [compound 73],CLL,"BRCA, CRC, GBC, GC, GEJC, HCC, MEL, NHL, NSCLCadeno, NSCLCother, NSCLCsquam, OC, OSCAR, PACA, PRCA, SCLC, UBC, UEC"
74 (SYADNILSF; listed as Homo sapiens) [compound 74],CLL,"BRCA, CRC, GBC, GBM, GC, HCC, HNSCC, MEL, NHL, NSCLCadeno, NSCLCother, NSCLCsquam, OC, OSCAR, PACA, PRCA, RCC, SCLC, UBC, UEC"
75 (RFYLLTEHF; listed as Homo sapiens) [compound 75],AML,"CRC, GBC, HCC, NHL, NSCLCadeno, NSCLCsquam, OSCAR, SCLC"
76 (KAFSWSSAF; listed as Homo sapiens) [compound 76],CLL,"BRCA, GBM, NHL, NSCLCsquam, PRCA, SCLC, UBC"

Substance,Peptide Presentation on cancer entities,Peptide Presentation on tumor types
77 (RPNGNSLFTSA; listed as Homo sapiens) [compound 77],CLL,"HCC, MEL, NHL, PRCA, SCLC, UEC"
78 (RPRGLALVL; listed as Homo sapiens) [compound 78],"AML, CML","BRCA, CCC, CRC, GBC, GBM, GC, HCC, HNSCC, MEL, NHL, NSCLCadeno, NSCLCother, NSCLCsquam, OC, OSCAR, PACA, PRCA, RCC, SCLC, UBC, UEC"
79 (SPVPSHWMVA; listed as Homo sapiens) [compound 79],CLL,"CCC, MEL, NHL, PRCA, SCLC, UBC"
80 (KPLFKVSTF; listed as Homo sapiens) [compound 80],CLL,"NHL, NSCLCadeno, NSCLCother, NSCLCsquam, OC, OSCAR, RCC, UEC"
81 (SESPWLHAPSL; listed as Homo sapiens) [compound 81],CLL,–
82 (APFGFLGMQSL; listed as Homo sapiens) [compound 82],CLL,–
83 (IPVSRPIL; listed as Homo sapiens) [compound 83],CLL,–
84 (SPKLQIAAM; listed as Homo sapiens) [compound 84],CLL,"NHL, OC"
85 (IPVSHPVL; listed as Homo sapiens) [compound 85],CLL,NHL
86 (IPASHPVL; listed as Homo sapiens) [compound 86],CLL,"GBC, MEL, NHL, NSCLCsquam, OSCAR, PACA, SCLC"
87 (FPAPILRAV; listed as Homo sapiens) [compound 87],CLL,"GBC, GC, MEL, NHL, NSCLCother, UBC"
88 (MPDPHLYHQM; listed as Homo sapiens) [compound 88],CLL,"MEL, NHL, NSCLCsquam"
89 (FPETVNNLL; listed as Homo sapiens) [compound 89],CLL,"NSCLCadeno, NSCLCother, NSCLCsquam, PACA"
90 (KPKAAKPKA; listed as Homo sapiens) [compound 90],CLL,–
91 (KPKAAKPKAA; listed as Homo sapiens) [compound 91],CLL,–
92 (KAKKPAGAA; listed as Homo sapiens) [compound 92],CLL,–
93 (KARKSAGAA; listed as Homo sapiens) [compound 93],CLL,–
94 (KPKAAKPKKAAA; listed as Homo sapiens) [compound 94],CLL,–
95 (KPKAAKPKTA; listed as Homo sapiens) [compound 95],CLL,–
96 (KPKKAPKSPA; listed as Homo sapiens) [compound 96],CLL,–
